Measurements published in the supplement of paper PMC5949888.
Most values lie at the floor of the assay. Slopes are relative: functional sequences can read slightly below zero.

Each substance was assayed on Saccharomyces cerevisiae PS128 hsf1 delta, HSF1(1-493) fusion (assay: growth estimate (transactivation domain function in HSF1 fusion, heat-shock survival) (a.u. (slope of normalised read count over time)); higher = stronger growth at 37°C, i.e. more transactivation activity). Details: library: random library.
Experimental: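 Random 60-nt DNA library encoding peptides of up to 20 aa, fused to the C-terminus of yeast HSF1 residues 1-493 (C-terminal TAD deleted) and expressed from the native HSF1 promoter on a CEN plasmid in hsf1-deleted S. cerevisiae PS128. Cells were selected at 37°C on -trp 5-FOA plates for 0, 2, 4, 6 and 8 days and amplicons were sequenced. Growth estimate is the slope of a robust linear fit of total-sum-normalised read counts (normalised to the first time point) over time, using at least 2 replicates. Sequences are classed functional (TAD activity) above a threshold of -0.13, set from stop-codon control sequences.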
Work on GDILAES yielded a growth estimate of less than -0.25.
Work on GDLGMPKAYRLGSSAME yielded a growth estimate of less than -0.25.
In the case of GDLIEDSEGSFTSTS, the growth estimate is reported as less than -0.25.
GDLSSVVHSCKWGLALTTSK was tested, and the growth estimate was less than -0.25.
With GDLVLVGYGRLTAPWAEWHY the growth estimate was less than -0.25.
GDMDLRKAS was tested, and the growth estimate was less than -0.25.
Substance GDNAPREASYFWCVRIFRLP has a growth estimate of less than -0.25.
In the case of GDNECAHYVCMFSVHHRRTA, the growth estimate is reported as less than -0.25.
GDPLAIVVLWIY gave a growth estimate of less than -0.25.
For GDQLCHSGTQG, the growth estimate was less than -0.25.
With GDRGGARLLGIFTVEF the growth estimate was less than -0.25.
GDRTCCYMALYPPAKGMRAA showed a growth estimate of less than -0.25.
For GDRTVLEWWTASSPVITGSA, the growth estimate was less than -0.25.
GDSGASVVFLVQLT gave a growth estimate of less than -0.25.
With GDSMHSGLRWKI the growth estimate was less than -0.25.
With GDSNVARLYPVHMTSCQAHE the growth estimate was less than -0.25.
GDSRQRHSKKYAAFSPVHYG was tested, and the growth estimate was less than -0.25.
GDTGLGMQLL gave a growth estimate of less than -0.25.
Substance GDTILTDHVSLARRLRVGDV has a growth estimate of less than -0.25.
Work on GDTKASN yielded a growth estimate of less than -0.25.
GDVRRSGPVVPSCTVLCRNC showed a growth estimate of less than -0.25.
GDVSTRGNGKVERGRDPPGI was tested, and the growth estimate was less than -0.25.
For GDW, the growth estimate was less than -0.25.
GEA showed a growth estimate of less than -0.25.
Substance GEAIRLPTQRFSISIEMRYS has a growth estimate of less than -0.25.
With GECRKYLSHAN the growth estimate was less than -0.25.
Substance GEEKPALTSRDSRCGM has a growth estimate of less than -0.25.
GEG showed a growth estimate of -0.132.
Substance GEGKLID has a growth estimate of less than -0.25.
With GEGLVRQRMHVY the growth estimate was less than -0.25.
Work on GEGQFCVSASGVQFFTKVSQ yielded a growth estimate of less than -0.25.
GEGSAGAQHGSRICAGSVI was tested, and the growth estimate was less than -0.25.
For GEGSDARQPGIKLYARSVPA, the growth estimate was less than -0.25.
GEIHSRGHIPMGVDAQEARV was tested, and the growth estimate was -0.226.
With GEIYDPTG the growth estimate was less than -0.25.
GELECFPPH was tested, and the growth estimate was less than -0.25.
With GELTL the growth estimate was less than -0.25.
Work on GEPAR yielded a growth estimate of less than -0.25.
In the case of GEPRRCRGQVSCPYGANSSV, the growth estimate is reported as less than -0.25.
GEQKISISDNTDLPCGSRPS showed a growth estimate of less than -0.25.
Substance GEQRHTQGGTYLFWEQRAQA has a growth estimate of less than -0.25.
GEREDGQWVSCSTRLNNAHR showed a growth estimate of less than -0.25.
With GERVRDSSGHTRNGIHGDDD the growth estimate was less than -0.25.
For GESARKLLGRRALYNE, the growth estimate was less than -0.25.
With GESLAVRQV the growth estimate was less than -0.25.
GESYSGLSASGAARQDVSYP was tested, and the growth estimate was less than -0.25.
In the case of GETDEQSGFSVLIGGERYEQ, the growth estimate is reported as less than -0.25.
For GETMK, the growth estimate was less than -0.25.
With GEVGRSTLVAGRGRHDIHYH the growth estimate was less than -0.25.
In the case of GEVICIKGSDSSSVSRRFCP, the growth estimate is reported as less than -0.25.
In the case of GEWIGLMRSAGIYFR, the growth estimate is reported as less than -0.25.
GEWLSVAE gave a growth estimate of less than -0.25.
GEYRMENFG showed a growth estimate of -0.19.
With GFAGGPLHAGPSSHWGYGLV the growth estimate was less than -0.25.
GFALKPSETYAFYLNP gave a growth estimate of less than -0.25.
Substance GFANIPQYPAAHLESSSAHH has a growth estimate of less than -0.25.
For GFARRTPCNHCPNCISSSKR, the growth estimate was less than -0.25.
With GFARYVLRVGSREGLKVYIR the growth estimate was less than -0.25.
For GFASGRE, the growth estimate was less than -0.25.
GFATGDSFMQAQPSLQLPLT gave a growth estimate of less than -0.25.
For GFDAGQYAPGSNNRSGSTAG, the growth estimate was less than -0.25.
GFDEKN showed a growth estimate of less than -0.25.
For GFGNGTEREVTLPDPAFRVC, the growth estimate was less than -0.25.
For GFGSHCDRQLIHLSSQQRGL, the growth estimate was less than -0.25.
GFHRGGAVEVRGNCNLALQG showed a growth estimate of less than -0.25.
With GFLGYCYTAGVGLARFVSMQ the growth estimate was less than -0.25.
Work on GFMFLTYRQMSYVYEPA yielded a growth estimate of less than -0.25.
GFNIANMADTK gave a growth estimate of less than -0.25.
In the case of GFQHSLRVRRVEGLRGFKRL, the growth estimate is reported as less than -0.25.
For GFRA, the growth estimate was less than -0.25.
For GFRAKFSTPPPGVVTRVFAD, the growth estimate was -0.248.
Work on GFRLRSPVKRGMAMGHNTPI yielded a growth estimate of less than -0.25.
Work on GFRR yielded a growth estimate of less than -0.25.
GFS was tested, and the growth estimate was less than -0.25.
For GFSEPSRSTQGADWFQPTAI, the growth estimate was less than -0.25.
With GFSISGRCKSRILICSGRLA the growth estimate was less than -0.25.
GFTPEMRSRTSSVLNMGIID gave a growth estimate of -0.25.
With GFVAISY the growth estimate was less than -0.25.
Work on GFVDDAYWWL yielded a growth estimate of less than -0.25.
With GFVLRGPGTGRSKVVKLPSM the growth estimate was less than -0.25.
Substance GGAEFNLDISRGSELFNRRV has a growth estimate of -0.0118.
Work on GGAEHLAVSGGRASHPESRQ yielded a growth estimate of less than -0.25.
Substance GGAFNRLRGRSLRERCERYT has a growth estimate of -0.25.
GGAKLSCARLVRGSQAGALG gave a growth estimate of less than -0.25.
GGANTPGAEWMVVAYVRTLR was tested, and the growth estimate was less than -0.25.
In the case of GGASPRKHVLGKPPVCLLV, the growth estimate is reported as less than -0.25.
GGAVGLLRWQSSYKFLLLTQ showed a growth estimate of less than -0.25.
GGAYSTR showed a growth estimate of less than -0.25.
GGCACLIWCTEPR showed a growth estimate of -0.245.
For GGCQWS, the growth estimate was less than -0.25.
Work on GGDAERHN yielded a growth estimate of less than -0.25.
In the case of GGEALTQICPYRPLGP, the growth estimate is reported as -0.162.
In the case of GGESPTSRRLTSTVNVLPI, the growth estimate is reported as less than -0.25.
In the case of GGFE, the growth estimate is reported as less than -0.25.
GGFRGYGSFR gave a growth estimate of -0.25.
In the case of GGGASLE, the growth estimate is reported as less than -0.25.
